The values below come from publication PMC8605323.

Results are given in words; binding and its absence hold for the method and conditions named.

The target of this test is full-length mouse Irgb6 (Mus musculus) (UniProt Q3T9E4). The test can be described thus: SEC; HiLoad 16/600 Superdex 75 pg column, 50 mM HEPES-KOH pH 7.5, 150 mM NaCl, 5 mM MgCl2, 2 mM dithiothreitol, 4°C; Irgb6 eluted at about 47 kD; both purified. For orientation: SEC sorts molecules by how far they enter the pores of the column.

B1: full-length mouse Irgb6 (enzyme, UniProt Q3T9E4 1-415)
chain: GPMAWASSFDAFFKNFKRESKIISEYDITLIMTYIEENKLQKAVSVIEKVLRDIESAPLHIAVTGETGAGKSTFINTLRGVGHEEKGAAPTGAIETTMKRTPYPHPKLPNVTIWDLPGIGTTNFTPQNYLTEMKFGEYDFFIIISATRFKENDAQLAKAIAQMGMNFYFVRTKIDSDLDNEQKFKPKSFNKEEVLKNIKDYCSNHLQESLDSEPPVFLVSNVDISKYDFPKLETKLLQDLPAHKRHVFSLSLQSLTEATINYKRDSLKQKVFLEAMKAGALATIPLGGMISDILENLDETFNLYRSYFGLDDASLENIAQDLNMSVDDFKVHLRFPHLFAEHNDESLEDKLFKYIKHISSVTGGPVAAVTYYRMAYYLQNLFLDTAANDAIALLNSKALFEKKVGPYISEPPEYWEA
For the molecule B1, the binding result was “no binding”.
